Data published in article PMC10869804 (Scientific Reports, 2024).

Key:
[1] = target: 6xHis-Flag affinity tagged Orf63 from lambda bacteriophage (phage λ); experiment: NMR titration; single 2:1 mixture of ubiquitin fusion protein and 15N-labelled Orf63 dimer; chemical shift and line broadening changes read; both purified
[2] = target: 6xHis-Flag affinity tagged Orf63 from lambda bacteriophage (phage λ); experiment: NMR titration; 15N-HSQC of 0.48 mM 15N-Orf63 (monomeric concentration) with 0.12, 0.24, 0.36, 0.48 and 0.60 mM peptide in PBS pH 7.4; chemical shift perturbation mapping; both purified

Row | binding [1] | binding [2] | Binder
1 | no binding (tested: 2:1 mixture) |  | GGLVPRGSGMAIAHAATEYVFADFVLK [6xHis-tagged ubiquitin fusion protein with an unrelated peptide]
2 |  | binds | DTKELILAIARKVKEMIKNS (designed binder) [designed Orf63 binding peptide … (unlabelled synthetic peptide)]
3 | binds |  | GGLVPRGSGDTKELILAIARKVKEMIKNS (designed binder) [6xHis-tagged ubiquitin fusion protein with the designed Orf63 binding peptide]

These are yes or no findings as the source states them, for the method shown. Binding calls can cover weak binding; strength is not graded here. For part of these data: Tags and fused reporters may be left off the sequences shown.
